Results as given in paper PMC3706371.
No constants are given. Whether binding was seen depends on the method and setting. Some results given as binding are weak or reduced against the parent protein; the word gives no strength.

Amino acid sequences for entries named in this document (tags omitted). A change or cut given only in a name is not applied to a line headed by its entry. Residues count along the entry.
UniProt P02461, residues 154-1221: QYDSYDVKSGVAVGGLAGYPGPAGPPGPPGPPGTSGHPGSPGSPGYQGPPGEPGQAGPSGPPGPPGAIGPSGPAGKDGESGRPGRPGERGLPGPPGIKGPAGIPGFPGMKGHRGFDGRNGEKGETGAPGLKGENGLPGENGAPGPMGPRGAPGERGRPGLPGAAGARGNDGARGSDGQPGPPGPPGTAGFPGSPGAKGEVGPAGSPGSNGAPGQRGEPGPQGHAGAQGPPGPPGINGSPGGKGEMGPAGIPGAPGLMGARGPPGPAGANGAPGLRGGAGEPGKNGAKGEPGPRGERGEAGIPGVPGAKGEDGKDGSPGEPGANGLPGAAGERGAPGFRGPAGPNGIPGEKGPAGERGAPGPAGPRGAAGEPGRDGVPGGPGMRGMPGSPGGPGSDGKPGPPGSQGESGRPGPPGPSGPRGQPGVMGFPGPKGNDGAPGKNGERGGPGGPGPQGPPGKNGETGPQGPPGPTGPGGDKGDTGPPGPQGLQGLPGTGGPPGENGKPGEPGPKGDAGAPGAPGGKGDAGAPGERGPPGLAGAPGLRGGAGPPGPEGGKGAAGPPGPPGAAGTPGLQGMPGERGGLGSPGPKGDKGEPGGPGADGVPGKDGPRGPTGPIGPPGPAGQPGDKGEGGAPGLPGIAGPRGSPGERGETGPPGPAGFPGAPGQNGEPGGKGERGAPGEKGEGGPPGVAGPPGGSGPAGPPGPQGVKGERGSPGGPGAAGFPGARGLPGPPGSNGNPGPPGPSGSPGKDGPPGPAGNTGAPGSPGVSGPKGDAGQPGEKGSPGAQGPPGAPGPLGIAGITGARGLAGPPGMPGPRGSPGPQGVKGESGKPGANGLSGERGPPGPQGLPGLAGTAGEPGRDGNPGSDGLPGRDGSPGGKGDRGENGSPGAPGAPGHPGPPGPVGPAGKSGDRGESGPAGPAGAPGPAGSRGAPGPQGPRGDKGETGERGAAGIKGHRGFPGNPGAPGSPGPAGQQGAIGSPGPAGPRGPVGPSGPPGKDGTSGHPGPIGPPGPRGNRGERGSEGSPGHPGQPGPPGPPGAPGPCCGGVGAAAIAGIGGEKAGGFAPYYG
UniProt P17301: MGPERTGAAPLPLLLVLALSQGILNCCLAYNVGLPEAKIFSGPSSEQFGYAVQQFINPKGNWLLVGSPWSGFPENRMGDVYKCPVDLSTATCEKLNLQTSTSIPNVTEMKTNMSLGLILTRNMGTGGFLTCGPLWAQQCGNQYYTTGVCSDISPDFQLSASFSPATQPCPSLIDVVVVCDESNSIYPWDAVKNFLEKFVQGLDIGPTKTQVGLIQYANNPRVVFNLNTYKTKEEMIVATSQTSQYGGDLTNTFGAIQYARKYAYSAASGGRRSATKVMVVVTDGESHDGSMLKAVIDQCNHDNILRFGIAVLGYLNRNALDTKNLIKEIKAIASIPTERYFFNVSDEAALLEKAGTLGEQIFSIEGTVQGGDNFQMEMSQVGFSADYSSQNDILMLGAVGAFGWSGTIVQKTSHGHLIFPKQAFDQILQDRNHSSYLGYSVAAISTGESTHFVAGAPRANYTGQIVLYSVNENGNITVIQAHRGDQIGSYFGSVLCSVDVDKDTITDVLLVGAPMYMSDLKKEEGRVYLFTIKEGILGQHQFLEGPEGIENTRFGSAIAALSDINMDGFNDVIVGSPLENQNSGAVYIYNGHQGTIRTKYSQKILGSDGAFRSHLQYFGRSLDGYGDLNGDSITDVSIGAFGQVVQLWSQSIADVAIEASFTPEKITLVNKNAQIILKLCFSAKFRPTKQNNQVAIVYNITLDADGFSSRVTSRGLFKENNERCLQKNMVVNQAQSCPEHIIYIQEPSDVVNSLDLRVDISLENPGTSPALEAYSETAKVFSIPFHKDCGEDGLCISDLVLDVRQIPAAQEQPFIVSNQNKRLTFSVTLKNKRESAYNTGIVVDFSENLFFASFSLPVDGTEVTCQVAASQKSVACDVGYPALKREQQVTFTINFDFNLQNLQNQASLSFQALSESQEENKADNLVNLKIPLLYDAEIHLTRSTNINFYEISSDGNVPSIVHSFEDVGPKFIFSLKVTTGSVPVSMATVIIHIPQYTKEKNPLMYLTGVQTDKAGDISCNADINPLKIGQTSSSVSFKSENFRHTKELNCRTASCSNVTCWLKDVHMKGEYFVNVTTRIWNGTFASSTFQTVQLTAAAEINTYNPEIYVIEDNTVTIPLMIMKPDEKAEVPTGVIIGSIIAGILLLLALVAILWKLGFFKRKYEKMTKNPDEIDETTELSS
UniProt P56199: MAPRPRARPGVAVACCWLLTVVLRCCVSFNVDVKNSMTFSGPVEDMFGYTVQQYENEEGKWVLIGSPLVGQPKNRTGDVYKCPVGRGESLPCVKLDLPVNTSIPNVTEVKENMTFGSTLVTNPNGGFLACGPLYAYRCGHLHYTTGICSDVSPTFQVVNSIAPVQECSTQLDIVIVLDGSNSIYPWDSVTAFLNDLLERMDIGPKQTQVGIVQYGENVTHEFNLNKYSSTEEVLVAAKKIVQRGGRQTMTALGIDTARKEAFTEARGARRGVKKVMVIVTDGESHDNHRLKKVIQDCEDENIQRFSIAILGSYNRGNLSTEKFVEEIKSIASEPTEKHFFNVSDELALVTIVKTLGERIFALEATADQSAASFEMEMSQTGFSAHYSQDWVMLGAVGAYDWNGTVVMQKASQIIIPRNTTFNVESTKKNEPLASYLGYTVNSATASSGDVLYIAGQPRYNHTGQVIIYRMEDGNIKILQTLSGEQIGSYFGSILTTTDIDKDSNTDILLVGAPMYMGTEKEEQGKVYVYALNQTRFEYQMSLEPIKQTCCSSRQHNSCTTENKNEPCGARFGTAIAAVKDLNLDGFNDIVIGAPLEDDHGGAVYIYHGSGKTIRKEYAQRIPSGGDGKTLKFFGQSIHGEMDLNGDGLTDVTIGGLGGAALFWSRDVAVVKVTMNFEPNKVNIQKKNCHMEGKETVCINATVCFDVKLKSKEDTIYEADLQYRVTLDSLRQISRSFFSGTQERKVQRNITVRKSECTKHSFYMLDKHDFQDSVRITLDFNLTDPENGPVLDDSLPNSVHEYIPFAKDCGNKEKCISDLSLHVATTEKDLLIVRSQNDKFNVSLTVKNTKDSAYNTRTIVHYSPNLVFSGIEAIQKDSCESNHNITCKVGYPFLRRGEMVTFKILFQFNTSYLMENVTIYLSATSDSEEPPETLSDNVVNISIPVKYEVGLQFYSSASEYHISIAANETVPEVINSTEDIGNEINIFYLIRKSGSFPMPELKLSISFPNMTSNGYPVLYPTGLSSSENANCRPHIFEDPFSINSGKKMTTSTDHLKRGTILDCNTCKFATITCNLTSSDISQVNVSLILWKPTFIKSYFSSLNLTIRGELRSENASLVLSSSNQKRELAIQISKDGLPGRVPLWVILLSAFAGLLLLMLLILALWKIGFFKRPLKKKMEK
UniProt P26006: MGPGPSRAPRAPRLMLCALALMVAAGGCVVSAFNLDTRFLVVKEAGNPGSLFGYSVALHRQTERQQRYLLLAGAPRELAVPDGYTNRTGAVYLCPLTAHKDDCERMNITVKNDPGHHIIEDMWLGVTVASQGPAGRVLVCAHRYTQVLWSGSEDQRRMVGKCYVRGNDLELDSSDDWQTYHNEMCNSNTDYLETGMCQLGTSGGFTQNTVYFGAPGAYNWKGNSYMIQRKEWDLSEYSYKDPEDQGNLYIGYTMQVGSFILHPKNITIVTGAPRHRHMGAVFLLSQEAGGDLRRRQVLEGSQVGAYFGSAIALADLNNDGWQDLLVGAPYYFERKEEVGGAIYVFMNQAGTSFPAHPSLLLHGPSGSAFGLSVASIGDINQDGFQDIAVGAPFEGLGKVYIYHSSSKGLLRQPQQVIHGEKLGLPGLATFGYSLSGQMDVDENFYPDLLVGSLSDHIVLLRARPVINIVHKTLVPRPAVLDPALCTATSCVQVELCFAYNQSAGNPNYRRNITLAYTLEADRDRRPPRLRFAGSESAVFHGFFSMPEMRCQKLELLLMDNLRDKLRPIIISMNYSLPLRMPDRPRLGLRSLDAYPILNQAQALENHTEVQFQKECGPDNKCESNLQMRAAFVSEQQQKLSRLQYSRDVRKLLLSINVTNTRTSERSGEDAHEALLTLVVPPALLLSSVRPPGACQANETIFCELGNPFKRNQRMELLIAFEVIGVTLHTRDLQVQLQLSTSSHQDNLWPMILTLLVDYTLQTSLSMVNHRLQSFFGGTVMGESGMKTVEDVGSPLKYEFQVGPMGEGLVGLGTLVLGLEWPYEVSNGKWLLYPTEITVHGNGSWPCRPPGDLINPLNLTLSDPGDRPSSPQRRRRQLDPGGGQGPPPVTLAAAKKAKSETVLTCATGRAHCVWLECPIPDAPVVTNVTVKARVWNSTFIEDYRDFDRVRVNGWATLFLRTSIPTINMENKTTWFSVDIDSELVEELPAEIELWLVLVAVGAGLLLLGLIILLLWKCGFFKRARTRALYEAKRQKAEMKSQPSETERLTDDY

How the values were obtained:
[1] = molecular target: human type III collagen (human) (UniProt P02461); experiment: ELISA; solid-phase binding assay as a1, but in TBS, 0.1% BSA, 0.02% Tween-20 with 10 mM EDTA instead of 1 mM MnCl2; both purified
[2] = molecular target: human type III collagen (human) (UniProt P02461); experiment: ELISA; solid-phase binding assay: collagen III or laminin-511 coated on 96-well plates (10 nM, overnight, 4°C); integrins 10 nM added for 3 h at RT in TBS, 0.1% BSA, 0.02% Tween-20, 1 mM MnCl2; bound integrin detected with biotinylated anti-Velcro antibody and streptavidin-HRP, absorbance at 490 nm; both purified

binding [1]	binding [2]	Substance
no binding (condition: with 10 mM EDTA)	binds	recombinant human α2β1 integrin (soluble heterodimer of the extracellular domains) (from UniProt P17301 30-1132; P05556 21-728) (complex)
no binding (condition: with 10 mM EDTA)	binds	recombinant human α1β1 integrin (soluble heterodimer of the extracellular domains) (from UniProt P56199 29-1141; P05556 21-728) (complex)
	no binding (tested: 10 nM)	recombinant human α3β1 integrin (soluble heterodimer of the extracellular domains) (from UniProt P26006 33-991; P05556 21-728) (complex)
